Literature values in patent publication US11535856B2, “Stilbenoid prenyltransferases from plants” (Arkansas State University—Jonesboro, priority 2016, dated 2022).
Read-outs that look alike come from different tables or passages of the source.

Tested on: non-elicited peanut hairy root cultures
Conditions: cited from earlier work

## Oc1ccc(/C=C/c2cc(O)cc(O)c2)cc1 [resveratrol, 3,5,4′-trihydroxy-trans-stilbene]
0.5 h co-incubation
  reduction of initial resveratrol concentration in culture medium: 47%
1 h co-incubation
  reduction of initial resveratrol concentration in culture medium: 97%
